Reference: paper PMC5040961

Target: T1, FLAG-tagged Lgl1 (Lethal giant larvae 1) (mouse) (UniProt Q80Y17)
T1 sequence: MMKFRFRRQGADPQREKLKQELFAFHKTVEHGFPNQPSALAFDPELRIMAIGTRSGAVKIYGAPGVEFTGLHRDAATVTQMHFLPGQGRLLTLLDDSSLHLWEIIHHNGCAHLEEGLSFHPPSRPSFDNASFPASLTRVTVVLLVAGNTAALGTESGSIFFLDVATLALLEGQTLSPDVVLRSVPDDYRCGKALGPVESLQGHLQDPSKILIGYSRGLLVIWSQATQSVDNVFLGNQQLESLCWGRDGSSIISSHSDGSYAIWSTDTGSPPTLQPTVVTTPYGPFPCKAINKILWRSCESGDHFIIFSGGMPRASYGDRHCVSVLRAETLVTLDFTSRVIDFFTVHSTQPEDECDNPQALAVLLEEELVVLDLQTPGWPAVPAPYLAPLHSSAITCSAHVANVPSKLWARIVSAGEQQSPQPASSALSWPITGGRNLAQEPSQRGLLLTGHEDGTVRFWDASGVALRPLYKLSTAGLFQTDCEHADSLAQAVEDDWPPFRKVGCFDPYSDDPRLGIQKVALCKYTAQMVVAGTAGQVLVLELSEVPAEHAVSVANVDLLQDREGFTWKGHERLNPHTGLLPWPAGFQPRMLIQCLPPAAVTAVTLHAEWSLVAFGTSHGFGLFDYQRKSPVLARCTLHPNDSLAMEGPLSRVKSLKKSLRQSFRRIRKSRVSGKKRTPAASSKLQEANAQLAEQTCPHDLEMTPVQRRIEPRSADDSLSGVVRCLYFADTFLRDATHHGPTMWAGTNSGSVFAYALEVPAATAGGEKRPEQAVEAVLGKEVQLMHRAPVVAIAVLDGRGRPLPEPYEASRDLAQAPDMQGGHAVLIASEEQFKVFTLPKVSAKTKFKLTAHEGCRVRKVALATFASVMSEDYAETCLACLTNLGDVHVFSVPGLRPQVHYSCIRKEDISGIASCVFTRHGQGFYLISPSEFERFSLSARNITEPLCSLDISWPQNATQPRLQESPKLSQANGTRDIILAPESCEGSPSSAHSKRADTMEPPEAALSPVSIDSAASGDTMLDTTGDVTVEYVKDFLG
Assay: co-IP; lysates of HEK293T cells co-expressing HA-PKCζ-wt or HA-PKCζ-Smut with FLAG-Lgl1 (NP40 lysis buffer); IP with anti-FLAG M2 affinity gel, 1-2 h at 4 °C; western blot with HA and FLAG antibodies

Substance | binding
HA-PKCζ-Smut (PKCζ-SUMOylation-defective mutant, K225/284/378R) (human) (enzyme) | binds
HA-PKCζ-wt (human) (enzyme) | binds

These are yes or no findings as the source states them, for the method shown. Binding seen in cells or lysates may run through a third protein. Binding calls can cover weak binding; strength is not graded here. Tags and fused reporters may be left off the sequences shown.
